Earlier results in patent US20170240926A1, “METHODS FOR PRENYLATION OF PEPTIDES AND THEIR USE IN OVER-PRODUCTION OF FARNESENE AND GERANYLGERANYL TERPENES” (University of North Texas, priority 2016, published 2017).
The name of at least one read-out is uncertain.

Biological target: FTase (Rattus norvegicus, UniProt Q02293+Q04631)
Conditions: 10 μM FPP, 0.4-10 μM dansylated peptide, 25-300 nM FTase, 50 mM HEPPSO pH 7.8, 25° C.

In the case of “CFLS: peptide of the form dansyl-TKCxxx with C-terminal CFLS; SCAMPER (N-terminal dansyl)”, the kcat/Km is given as 0.6 ± 0.1 mM⁻¹ s⁻¹.
